This note sets out measurements from PMC4997581.

Chains of the proteins cited; added tags and fusions are not shown.
UniProt O60563: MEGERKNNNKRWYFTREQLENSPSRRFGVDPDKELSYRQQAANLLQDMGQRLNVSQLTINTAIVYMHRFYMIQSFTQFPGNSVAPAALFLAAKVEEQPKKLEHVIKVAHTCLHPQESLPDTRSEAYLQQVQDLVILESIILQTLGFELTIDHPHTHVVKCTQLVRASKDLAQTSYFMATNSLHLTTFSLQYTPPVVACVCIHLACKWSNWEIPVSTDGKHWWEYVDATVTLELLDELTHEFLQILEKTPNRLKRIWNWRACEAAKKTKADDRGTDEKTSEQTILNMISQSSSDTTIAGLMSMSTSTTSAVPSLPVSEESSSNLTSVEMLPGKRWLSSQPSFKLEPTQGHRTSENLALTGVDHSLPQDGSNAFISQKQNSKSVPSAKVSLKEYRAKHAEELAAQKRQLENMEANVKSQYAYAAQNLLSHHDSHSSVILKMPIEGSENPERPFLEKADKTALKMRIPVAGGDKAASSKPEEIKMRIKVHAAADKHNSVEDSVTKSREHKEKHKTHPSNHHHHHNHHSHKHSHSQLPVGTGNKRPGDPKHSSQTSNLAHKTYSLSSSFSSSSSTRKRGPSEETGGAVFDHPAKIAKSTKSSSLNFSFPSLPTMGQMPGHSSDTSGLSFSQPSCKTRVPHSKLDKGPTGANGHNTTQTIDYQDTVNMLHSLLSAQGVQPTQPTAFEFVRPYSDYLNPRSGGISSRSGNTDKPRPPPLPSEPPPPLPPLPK
UniProt P16788: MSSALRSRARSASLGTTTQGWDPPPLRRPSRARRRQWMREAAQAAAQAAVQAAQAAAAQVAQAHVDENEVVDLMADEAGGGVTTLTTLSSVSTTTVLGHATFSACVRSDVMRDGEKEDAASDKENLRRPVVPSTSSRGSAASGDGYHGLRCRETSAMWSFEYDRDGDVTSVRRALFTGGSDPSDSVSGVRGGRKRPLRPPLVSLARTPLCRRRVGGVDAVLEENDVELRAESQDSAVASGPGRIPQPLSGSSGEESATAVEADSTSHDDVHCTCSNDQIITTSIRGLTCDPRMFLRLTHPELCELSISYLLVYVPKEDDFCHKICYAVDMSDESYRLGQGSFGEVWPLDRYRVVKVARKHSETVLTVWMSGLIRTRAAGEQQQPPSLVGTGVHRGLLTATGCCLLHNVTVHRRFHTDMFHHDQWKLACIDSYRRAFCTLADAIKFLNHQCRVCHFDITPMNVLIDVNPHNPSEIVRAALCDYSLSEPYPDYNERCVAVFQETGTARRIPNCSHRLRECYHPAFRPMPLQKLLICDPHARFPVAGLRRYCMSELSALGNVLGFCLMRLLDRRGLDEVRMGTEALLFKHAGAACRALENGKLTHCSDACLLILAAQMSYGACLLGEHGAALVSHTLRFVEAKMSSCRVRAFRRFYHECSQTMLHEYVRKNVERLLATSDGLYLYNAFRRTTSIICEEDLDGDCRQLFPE
UniProt P38936: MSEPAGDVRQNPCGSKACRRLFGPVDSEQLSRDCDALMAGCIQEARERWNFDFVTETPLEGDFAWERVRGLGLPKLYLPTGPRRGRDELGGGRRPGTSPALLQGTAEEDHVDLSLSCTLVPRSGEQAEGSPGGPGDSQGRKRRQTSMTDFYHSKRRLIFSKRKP
UniProt P46527: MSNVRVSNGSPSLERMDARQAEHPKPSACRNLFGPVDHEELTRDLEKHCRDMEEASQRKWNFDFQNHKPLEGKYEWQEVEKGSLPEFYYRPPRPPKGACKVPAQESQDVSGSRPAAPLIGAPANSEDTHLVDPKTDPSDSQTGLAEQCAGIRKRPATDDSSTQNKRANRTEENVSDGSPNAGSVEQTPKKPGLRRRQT
UniProt O60583: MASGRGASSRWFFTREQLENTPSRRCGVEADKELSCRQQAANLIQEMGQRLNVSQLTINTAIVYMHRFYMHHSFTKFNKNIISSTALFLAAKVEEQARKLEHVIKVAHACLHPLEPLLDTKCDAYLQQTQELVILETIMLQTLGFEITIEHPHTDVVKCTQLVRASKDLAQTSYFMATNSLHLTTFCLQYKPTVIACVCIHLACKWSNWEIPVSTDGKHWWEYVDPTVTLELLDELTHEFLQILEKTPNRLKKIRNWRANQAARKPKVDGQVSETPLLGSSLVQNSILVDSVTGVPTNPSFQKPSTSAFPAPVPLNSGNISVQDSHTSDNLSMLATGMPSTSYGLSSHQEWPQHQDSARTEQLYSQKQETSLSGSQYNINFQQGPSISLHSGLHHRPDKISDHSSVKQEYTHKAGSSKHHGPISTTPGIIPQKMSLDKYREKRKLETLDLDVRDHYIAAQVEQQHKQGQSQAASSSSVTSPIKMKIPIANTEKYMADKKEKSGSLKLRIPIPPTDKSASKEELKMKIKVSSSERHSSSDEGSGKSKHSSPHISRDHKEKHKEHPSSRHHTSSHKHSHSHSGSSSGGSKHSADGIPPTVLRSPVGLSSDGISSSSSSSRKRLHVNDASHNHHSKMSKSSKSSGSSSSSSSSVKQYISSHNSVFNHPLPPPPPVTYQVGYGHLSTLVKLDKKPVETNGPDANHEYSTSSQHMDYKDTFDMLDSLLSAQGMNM
UniProt P50750: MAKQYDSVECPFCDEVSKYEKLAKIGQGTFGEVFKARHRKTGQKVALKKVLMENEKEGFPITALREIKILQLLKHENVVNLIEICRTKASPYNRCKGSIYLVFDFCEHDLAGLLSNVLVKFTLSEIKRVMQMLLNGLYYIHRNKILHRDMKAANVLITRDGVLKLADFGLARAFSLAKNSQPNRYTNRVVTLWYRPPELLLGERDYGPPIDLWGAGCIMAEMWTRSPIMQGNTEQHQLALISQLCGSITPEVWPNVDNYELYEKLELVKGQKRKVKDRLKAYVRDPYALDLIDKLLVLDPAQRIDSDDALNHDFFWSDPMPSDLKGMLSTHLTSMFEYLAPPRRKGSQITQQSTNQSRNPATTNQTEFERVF

No constants are given. Whether binding was seen depends on the method and setting. In cells and extracts the contact can be indirect. Here binding means that the protein was enriched with, or labelled near, the bait; the list need not be complete. For part of these data: No binding means not detected with the bait.

The target in test [1] is Cyclin B1 (human (endogenous in 293T and HFF)) (UniProt P14635). The experiment in a line: affinity purification with mass spectrom.
The target in test [2] is Cyclin T1 (human (endogenous in 293T and HFF)) (UniProt O60563). The experiment in a line: affinity purification with mass spectrom.
In test [3] the target is HCMV protein kinase pUL97, Flag-tagged (pUL97-Flag) (human cytomegalovirus) (UniProt P16788). Put plainly: affinity purification with mass spectrometry.

For “CDK inhibitor 1A (Cip1) (from UniProt P38936 1-164)”, the binding result in test [1] is listed as “binds”. On the same count and under the same terms, with “CDK inhibitor 1B (from UniProt P46527 1-198)” the entry was “binds”. Turning to Cyclin T2 (from UniProt O60583 1-730), the results for the binding result in test [2] and in test [3] were “binds” and “no binding”, respectively.

In the case of “Cyclin-dependent kinase 9 (from UniProt P50750 1-372)”, the binding entry in test [1] is “binds”.

Turning to “Cyclin-dependent like kinase 5 (from UniProt Q00535 1-292)”, the binding entry in test [1] is “binds”.
